The results in this text go back to publication doi:10.1101/2020.07.28.225359 (bioRxiv, 2020).

Amino acid sequences for entries named in this document (tags omitted).
UniProt P19474: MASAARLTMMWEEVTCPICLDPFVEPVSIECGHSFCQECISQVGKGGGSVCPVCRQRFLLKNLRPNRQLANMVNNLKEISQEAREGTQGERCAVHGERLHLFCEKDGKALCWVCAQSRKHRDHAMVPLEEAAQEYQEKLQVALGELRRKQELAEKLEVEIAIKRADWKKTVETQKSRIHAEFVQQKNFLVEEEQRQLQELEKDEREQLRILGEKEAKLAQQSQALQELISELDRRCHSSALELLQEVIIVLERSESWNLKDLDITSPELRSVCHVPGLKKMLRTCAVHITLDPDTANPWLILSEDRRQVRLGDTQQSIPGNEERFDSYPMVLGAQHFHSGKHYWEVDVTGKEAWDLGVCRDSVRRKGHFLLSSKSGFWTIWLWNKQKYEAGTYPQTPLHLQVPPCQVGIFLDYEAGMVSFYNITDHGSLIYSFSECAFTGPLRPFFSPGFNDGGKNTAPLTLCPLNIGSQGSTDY

No constants are given. Whether binding was seen depends on the method and setting. Some entries that bind do so weakly or less than the wild type.

In the experiment the target is full length TRIM21 protein (T21FL) (human) (UniProt P19474). Kind of experiment: SAXS.

Regarding “full length TRIM21 protein (T21FL) (from UniProt P19474 1-475) (other; other documents disagree on this pair)”, the binding result is “binds”.
